Publication PMC3749136

Protein sequences, listed by entry. Tags and fused reporters are not part of them. Lines headed by an entry give the natural chain unless they say otherwise; changes in a name come on top.
UniProt O60674: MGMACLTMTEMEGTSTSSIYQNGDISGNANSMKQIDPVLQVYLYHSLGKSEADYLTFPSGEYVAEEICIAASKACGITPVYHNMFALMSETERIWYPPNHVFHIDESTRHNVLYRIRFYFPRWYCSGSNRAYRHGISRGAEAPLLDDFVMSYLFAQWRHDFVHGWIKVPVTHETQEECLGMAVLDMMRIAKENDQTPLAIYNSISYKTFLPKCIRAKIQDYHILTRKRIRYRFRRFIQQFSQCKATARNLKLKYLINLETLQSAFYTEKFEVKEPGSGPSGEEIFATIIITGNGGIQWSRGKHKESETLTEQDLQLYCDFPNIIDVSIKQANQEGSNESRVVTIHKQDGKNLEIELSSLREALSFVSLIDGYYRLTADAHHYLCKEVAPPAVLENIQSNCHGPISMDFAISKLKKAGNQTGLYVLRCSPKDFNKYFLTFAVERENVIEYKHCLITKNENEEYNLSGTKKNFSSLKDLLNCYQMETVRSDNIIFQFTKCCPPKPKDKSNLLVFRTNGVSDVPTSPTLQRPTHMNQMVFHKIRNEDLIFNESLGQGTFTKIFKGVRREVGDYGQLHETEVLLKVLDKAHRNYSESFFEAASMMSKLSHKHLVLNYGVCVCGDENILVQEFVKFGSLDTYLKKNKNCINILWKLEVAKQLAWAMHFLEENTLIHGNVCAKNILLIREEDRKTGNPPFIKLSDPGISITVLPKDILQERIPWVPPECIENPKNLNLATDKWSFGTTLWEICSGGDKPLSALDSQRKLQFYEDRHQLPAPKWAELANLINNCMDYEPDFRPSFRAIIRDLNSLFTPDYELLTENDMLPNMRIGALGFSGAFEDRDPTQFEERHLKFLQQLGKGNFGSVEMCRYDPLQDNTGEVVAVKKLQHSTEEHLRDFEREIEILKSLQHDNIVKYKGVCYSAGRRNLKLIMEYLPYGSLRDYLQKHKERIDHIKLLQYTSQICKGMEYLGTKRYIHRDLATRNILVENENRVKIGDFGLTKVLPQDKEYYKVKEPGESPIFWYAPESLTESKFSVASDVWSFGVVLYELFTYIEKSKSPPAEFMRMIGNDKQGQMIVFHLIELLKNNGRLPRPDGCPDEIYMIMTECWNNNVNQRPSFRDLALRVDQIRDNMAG

Target: JAK2 JH1 domain (UniProt O60674)
Assay: SPR; JAK1 and JAK2 JH1 domains immobilised on the chip, SOCS5 175-244 flowed over; non-specific binding of SOCS5 175-244 to the reference surface precluded quantitative analysis; both purified

B1: SOCS5 175–244 fragment (domain or fragment, UniProt O54928 175-244)
chain: RSLRQRLQDTVGLCFPMRTYSKQSKPLFSNKRKIHLSELMLEKCPFPAGSDLAQKWHLIKQHTAPVSPHS
- binding: binds

These are yes or no findings as the source states them, for the method shown. Binding calls can cover weak binding; strength is not graded here.
